Results from paper PMC12040169 (PLOS Biology, 2025).
The list shows a part of the results.

test system: T1, CTL2-GFP (C. trachomatis L2/434/Bu, GFP-expressing); set-up: species or system HeLa; Intracellular C. trachomatis growth in HeLa cells, bulk GFP fluorescence relative to DMSO; settings: bulk GFP, single well; 28.5 h, 10 µM; inhibitor
T1 construct: L2/434/Bu, GFP-expressing

SMILES	% of control remaining [%]
CC(C)CCN1CCn2nc(CNc3cnccn3)cc2C1 [CBK307540]	118.08
O=C(NCCN1CCCC1)c1cc2cc(Cl)ccc2[nH]1 [CBK107267]	71.8978
Cc1nn(C)c(C)c1NC(=O)CN1CCN(c2cccc(Cl)c2)CC1 [CBK306052]	134.194
O=C1NCC2(C/C=C/CCOc3ccccc31)CCN(Cc1ccccn1)CC2 [CBK292159]	116.979
Cc1nc(C)c(C(=O)C2=C(O)C(=O)N(CCCN3CCOCC3)C2c2ccncc2)s1 (stereo not shown) [CBK235187]	159.717
O=C(NCC1COc2ccccc2O1)C1(c2ccccc2)CCCC1 (stereo not shown) [CBK149524]	88.4659
Cc1cc(C)n(C(C(=O)NCC2(C)COC2)C(C)C)n1 (stereo not shown) [CBK281758]	125.361
OCCN1CCN(c2cc(N3CCN(c4ccccn4)CC3)n3nccc3n2)CC1 [CBK037129]	176.024
Cn1cc(CCNC(=O)N2CCCN(Cc3cccs3)CC2)cn1 [CBK305393]	134.231
CN(C)CCCn1c(=O)n(CC(=O)O)c(=O)c2c3c(sc21)CCC3 [CBK286783]	116.846
CC(=O)Nc1ccc(S(=O)(=O)N2CCC(n3c(=O)[nH]c4ccccc43)CC2)cc1 [CBK149696]	120.658
CN1CCN(C(=O)c2ccc(-c3cccc(C(F)(F)F)c3)nc2N2CCOCC2)CC1 [CBK106194]	111.504
CC(NC(=O)CCn1c(C(F)F)cc2cccnc21)c1ccncc1 (stereo not shown) [CBK285069]	135.285
CCN1CCN(Cc2c(C(C)(C)C)[nH]c3ncccc23)CC1 [CBK285341]	120.471
Cc1nc(C2CCCN(C(=O)c3cccnc3)C2)c2sccn12 (stereo not shown) [CBK285233]	133.186
Cc1ccc(C(=O)NCCN2CCC(O)(c3ccc(F)cc3)CC2)o1 [CBK283167]	112.224
C=CCOc1ccc(C(=O)C2=C(O)C(=O)N(Cc3cccnc3)C2c2ccc(Cl)cc2)c(C)c1 (stereo not shown) [CBK264716]	119.986
CSCCCNC(=O)c1cnn2c(C)c(Cc3cccnc3)c(C)nc12 [CBK162164]	110.864
NS(=O)(=O)c1ccc(NC(=O)CN2CCN(c3ccc([N+](=O)[O-])cc3)CC2)cc1 [CBK266232]	150.872
CCCN(Cc1nccn1C)C(=O)Cn1nc(C)c2ccccc2c1=O [CBK307441]	130.852
CCN(Cc1ccncc1)C(=O)NCc1ccc2c(c1)OCO2 [CBK145056]	80.4075
Cc1nc2ccc(C(=O)NC3=NN(c4ccccc4)C(=O)C3)cn2c1N(C)C(=O)CCc1ccccc1 [CBK146817]	91.0875
O=C(/C=C/c1ccc2c(c1)OCO2)N1CCCC2(CCN(C(=O)c3ccoc3)C2)C1 (stereo not shown) [CBK131622]	107.895
Cc1ccc(C)c(NC(=O)c2sc3cc(C)ccc3c2Cl)c1 [CBK263648]	100
O=C1CCCC2=C1C(c1ccccc1O)c1c([nH][nH]c1=O)N2 (stereo not shown) [CBK288442]	140.266
CCC(C)(C)c1ccc(S(=O)(=O)Nc2ccc(F)cc2F)cc1 [CBK200039]	121.966

SMILES	% of control remaining [%]
O=C(COc1ccc(S(=O)(=O)N2CCOCC2)cc1)NCc1ccccc1 [CBK268533]	107.76
O=c1/c(=C/c2cccnc2)sc2n1CN(c1cccc([N+](=O)[O-])c1)CN=2 [CBK264401]	100
CCCC(C)c1cn(CCc2cc(O)nc(C)n2)nn1 (stereo not shown) [CBK306871]	119.729
OC(CN1CCC(Oc2cccc(F)c2)CC1)c1cccs1 (stereo not shown) [CBK281453]	126.85
COC(=O)c1c(NC(=O)CC2Nc3cccc4cccc(c34)NC2=O)sc(C)c1C (stereo not shown) [CBK267562]	158.997
CCn1nccc1C(=O)N1CCC(c2cc3c(C)cccc3cn2)CC1 [CBK282234]	118.727
Cc1ccc(S(=O)(=O)N(CC(=O)Nc2cccnc2)c2cc(C)ccc2C)cc1 [CBK264115]	123.7
CN(Cc1cnn(C)c1)C(=O)c1cc(O)nc2ccccc12 [CBK251706]	114.603
CN(C)S(=O)(=O)c1ccc(C(=O)Nc2cccc(N3Cc4ccccc4C3)c2)cc1 [CBK266025]	143.104
COC(=O)[C@H]1CN(C(=O)c2ccncc2)C[C@@H]1c1ccc(F)cc1 [CBK283509]	105.502
O=[N+]([O-])c1ccc(-c2nc(-c3ccccc3)c(-c3ccc4oc5ccc(-c6[nH]c(-c7ccc([N+](=O)[O-])cc7)nc6-c6ccccc6)cc5c4c3)[nH]2)cc1 [CBK261434]	99.5823
Cc1cc(C)c(NC(=O)C2CCCN2CCCN(C)C)c(C)c1 (stereo not shown) [CBK278172F]	100
Nc1ncnc2c1ccn2[C@H]1C[C@@H](O)[C@@H](CO)O1 [CBK201258]	145.402
O=C(c1ccc(F)cc1)C1CCN(CCC(c2ccccc2)c2ccccc2)CC1 [CBK149138]	127.281
CS(=O)(=O)Nc1nccnc1N1CCN(Cc2ccccc2)CC1 [CBK084268]	101.91
Cc1ccc2c(c1)c(NC(=O)OC(C)C)nn2Cc1cc2c(cc1Cl)OCO2 [CBK048652]	140.353
Cc1ccc(C(=O)Nc2ccccc2C(=O)NC(C)C(=O)O)cc1 (stereo not shown) [CBK263540]	100
Cc1ccc2[nH]c(C3CCCCN3C(=O)c3ccncc3)nc2c1 (stereo not shown) [CBK284000]	102.31
COc1ncc(-c2cncc(NCCO)n2)c(OC)n1 [CBK037939]	181.517
O=C(NCCCn1ccnc1)N1CCN(Cc2ccc(Cl)cc2)CC1 [CBK305894]	37.7574
CCn1cc(C2CN(S(=O)(=O)c3cc(C)c(OC)c(C)c3)CCO2)cn1 (stereo not shown) [CBK304224]	66.4104
O=C(C1CC1)N1CCC(n2nc(-c3cccs3)ccc2=O)CC1 [CBK284213]	114.687
CN(C)CCN(Cc1ccncc1)Cc1cc(F)ccc1F [CBK283095]	121.142
c1ccc2c(c1)OCC(COc1nccc(N3CCCN(Cc4ccc5c(c4)OCO5)CC3)n1)O2 (stereo not shown) [CBK083235T]	115.259
O=C(Nc1ccc(F)cc1)c1ccc(=O)n(CC(=O)N2CCC3(CCCCC3)C2)c1 [CBK286006]	139.006
O=C(Cn1cnc2ccccc2c1=O)Oc1cccc(NC2=NS(=O)(=O)c3ccccc32)c1 [CBK264975]	126.252

SMILES	% of control remaining [%]
Cc1cc2nccc(C3CCCN(C(=O)c4ccccc4F)C3)n2n1 (stereo not shown) [CBK284184]	85.7695
Cc1cc2c(cc1S(=O)(=O)NCc1ccccc1)NC(=O)CO2 [CBK270159]	132.102
Cn1c(C(=O)NCCc2ccc(S(=O)(=O)NC(=O)NC3CCCCC3)cc2)cc2ccccc21 [CBK011876]	71.8637
COc1ncc(-c2ccc(NCC(C)C)nc2)c(OC)n1 [CBK036934]	135.052
COc1ccc2[nH]c(/C(C#N)=C\c3ccc(-c4cc(C(=O)O)ccc4Cl)o3)nc2c1 [CBK268370]	176.066
c1ccc(Cn2cc(-c3nccnc3OCc3ccccn3)cn2)cc1 [CBK107088]	94.8233
O=C(Nc1ccccc1C(=O)O)c1cccc(NC(=O)c2ccco2)c1 [CBK299774]	165.32
O=S(=O)(NCc1ccccn1)c1ccc(Cl)c(Cl)c1Cl [CBK263978]	95.8963
C=CCOc1ccc(C(=O)C2=C(O)C(=O)N(Cc3cccnc3)C2c2cccnc2)cc1 (stereo not shown) [CBK265167]	114.573
Cc1ccc(-c2ccc(/C=N\NC(=O)C3C(=O)NCC3c3ccccc3)o2)cc1Cl (stereo not shown) [CBK262808]	76.7778
Cc1[nH]c2ccccc2c1C(=O)CSc1nnc(N)s1 [CBK266328]	154.997
OCCNc1nccnc1-c1ccc2c(c1)OCO2 [CBK088984]	187.132
Cn1cc(NC(=O)CCn2c(C(F)(F)F)cc3cccnc32)cn1 [CBK284866]	118.343
CC(C)Cn1cnc(S(=O)(=O)N2CCC(Cc3ccccc3)CC2)c1 [CBK306273]	164.092
CC1CCc2c(sc(Nc3nc4c(F)cccc4s3)c2C(N)=O)C1 (stereo not shown) [CBK287477]	162.584
COc1ccc(C(C)C)cc1-c1cncc(NCC(C)(C)CO)n1 [CBK065206]	141.821
Cc1cccc(Cl)c1S(=O)(=O)c1ccc2ccnc(N3CCNCC3)c2c1 [CBK036394C]	101.562
CS(=O)(=O)c1ccc(CN2CC[C@H](c3nc4ncccc4[nH]3)C2)cc1 [CBK289385]	149.39
NC(=O)c1ccc(-c2ccc(/C=C3/C(=O)NN(c4ccc(F)cc4)C3=O)o2)cc1 [CBK098345]	116.273
COC(=O)[C@H]1CN(C(=O)c2cscn2)C[C@@H]1c1ccc(F)cc1 [CBK283785]	133.704
CC(C)(C)OC(=O)N1CCN(Cc2ccn(Cc3ccc(S(C)(=O)=O)cc3)c2)CC1 [CBK144936]	123.043
Cc1noc(C)c1CN1CCC(Oc2ccccc2)CC1 [CBK305811]	128.287
CC1CCN(C(=O)COC(=O)c2cnc(-c3ccncc3)s2)CC1 [CBK306255]	146.97
CCN(Cc1ccncc1)S(=O)(=O)c1ccc(Cl)c(Cl)c1 [CBK043818]	105.451
